Results reported in patent US12345718B2, “Method for determining the haemoglobin content of an erythroid cell” (UNIVERSITÉ PARIS EST CRÉTEIL VAL DE MARNE, priority 2016, dated 2025).
The amount applied is not stated for every result.

Experiment: Complete blood count / biological data of SS patients during treatment with hydroxyurea
Type: in vivo, human
Settings: M6 of hydroxyurea, median

NC(=O)NO [hydroxyurea]
Leukocytes: 9 Giga/l | Platelets: 318 giga/1
